# Reference: the supplement of paper PMC8877412
# ± gives the uncertainty stated by the source. The list shows a part of the results, in another mix than the full data.
# Tested on: NCC-PMP1-C1
# Experiment: cell viability relative to DMSO control; higher = less growth inhibition
# Details: 10 µM; 72 h
# Method: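 NCC-PMP1-C1 pseudomyxoma peritonei cells were seeded in 384-well plates coated with Matrigel and MEF (1e4 cells). Viability was read after 72 h by CCK-8 and expressed as % of the DMSO control, mean ± SD of duplicates.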
row,Structure (SMILES),cell viability [%]
1,COC(=O)[C@H](CCCN=C(N)N)NS(=O)(=O)c1ccc(C)cc1,89.7 ± 8.9
